Measured values as given in patent US8247595B2, “Organic sulfur compound and its use for controlling harmful arthropod” (Sumitomo Chemical Company, Limited, priority 2007, dated 2012).
Some entries share one result that the patent states for a list of compounds.

tested on: Nilaparvata lugens; test: Test Example 1: rice seedlings absorb the test solution from the bottom of the cup, number of parasitic Nilaparvata lugens; format: in vivo; settings: 55.6 ppm active ingredient, 45 ml test solution absorbed by rice plants; thirty first-instar larvae released, counted after 6 days at 25° C.

| SMILES | number of the parasitic pests |
| --- | --- |
| C#CCCC(F)(C(=O)OC)S(=O)(=O)CCC(F)(F)F (stereo not drawn) [present compound (9), methyl 2-fluoro-2-(3,3,3-trifluoropropylsulfonyl)-5-hexynoate] | ≤ 3 |
| C#CCCCCC(C)(C(N)=O)S(=O)(=O)CCC(F)(F)F (stereo not drawn) [present compound (7), 2-methyl-2-(3,3,3-trifluoropropylsulfonyl)-7-octynamide] | ≤ 3 |
| C#CCC(C)CCC(C#N)S(=O)(=O)CCC(F)(F)F (stereo not drawn) [present compound (27), 5-methyl-2-(3,3,3-trifluoropropylsulfonyl)-7-octynenitrile] | ≤ 3 |
| C#CCCCC(F)(C(N)=O)S(=O)(=O)CCC(F)(F)F (stereo not drawn) [present compound (13), 2-fluoro-2-(3,3,3-trifluoropropylsulfonyl)-6-heptynamide] | ≤ 3 |
| COC(=O)C(Cl)(CC=CC(F)(F)F)S(=O)(=O)CCC(F)(F)F (stereo not drawn) [present compound (18), methyl 2-chloro-6,6,6-trifluoro-2-(3,3,3-trifluoropropylsulfonyl)-4-hexenoate] | ≤ 3 |
| C#CCCCCCC(F)(C(N)=O)S(=O)(=O)CCC(F)(F)F (stereo not drawn) [present compound (16), 2-fluoro-2-(3,3,3-trifluoropropylsulfonyl)-8-nonynamide] | ≤ 3 |
| C#CCCCCC(F)(C(N)=O)S(=O)(=O)CCC(F)(F)F (stereo not drawn) [present compound (3), 2-fluoro-2-(3,3,3-trifluoropropylsulfonyl)-7-octynamide] | ≤ 3 |
| C#CCC(CC)CCC(Cl)(C(=O)OC)S(=O)(=O)CCC(F)(F)F (stereo not drawn) [present compound (31), methyl 2-chloro-5-ethyl-2-(3,3,3-trifluoropropylsulfonyl)-7-octynoate] | ≤ 3 |
| C#CCOCCC(C)(C#N)S(=O)(=O)CCC(F)(F)F (stereo not drawn) [present compound (39), 2-methyl-4-(2-propynyloxy)-2-(3,3,3-trifluoropropylsulfonyl)butanenitrile] | ≤ 3 |
| C#CCCCCC(Cl)(C#N)S(=O)(=O)CCC(F)(F)F (stereo not drawn) [present compound (26), 2-chloro-2-(3,3,3-trifluoropropylsulfonyl)-7-octynenitrile] | ≤ 3 |
| C#CCCCCC(Cl)(C(N)=O)S(=O)(=O)CCC(F)(F)F (stereo not drawn) [present compound (5), 2-chloro-2-(3,3,3-trifluoropropylsulfonyl)-7-octynamide] | ≤ 3 |
| C#CCC(C)(C)CCC(C#N)S(=O)(=O)CCC(F)(F)F (stereo not drawn) [present compound (33), 5,5-dimethyl-2-(3,3,3-trifluoropropylsulfonyl)-7-octynenitrile] | ≤ 3 |
| C#CCCC(F)(C(N)=O)S(=O)(=O)CCC(F)(F)F (stereo not drawn) [present compound (10), 2-fluoro-2-(3,3,3-trifluoropropylsulfonyl)-5-hexynamide] | ≤ 3 |
| C#CC(C)CCCC(C#N)S(=O)(=O)CCC(F)(F)F (stereo not drawn) [present compound (28), 6-methyl-2-(3,3,3-trifluoropropylsulfonyl)-7-octynenitrile] | ≤ 3 |
| C#CCC(CC)CCC(Cl)(C(N)=O)S(=O)(=O)CCC(F)(F)F (stereo not drawn) [present compound (32), 2-chloro-5-ethyl-2-(3,3,3-trifluoropropylsulfonyl)-7-octynamide] | ≤ 3 |
| C#CCOCCC(C#N)S(=O)(=O)CCC(F)(F)F (stereo not drawn) [present compound (38), 4-(2-propyonyloxy)-2-(3,3,3-trifluoropropylsulfonyl)butanenitrile] | ≤ 3 |
| CC(C#N)(C/C=C/C(F)(F)F)S(=O)(=O)CCC(F)(F)F (stereo not drawn) [present compound (34), 6,6,6-trifluoro-2-methyl-2-(3,3,3-trifluoropropylsulfonyl)-4-hexenenitrile] | ≤ 3 |
| C#CCC(CC)CCC(C#N)S(=O)(=O)CCC(F)(F)F (stereo not drawn) [present compound (29), 5-ethyl-2-(3,3,3-trifluoropropylsulfonyl)-7-octynenitrile] | ≤ 3 |
| C#CCCC(C(=O)OC)S(=O)(=O)CCC(F)(F)F (stereo not drawn) [present compound (8), methyl 2-(3,3,3-trifluoropropylsulfonyl)-5-hexynoate] | ≤ 3 |
| C/C(=C\CC(C#N)S(=O)(=O)CCC(F)(F)F)C(F)(F)F (stereo not drawn) [present compound (35), 6,6,6-trifluoro-5-methyl-2-(3,3,3-trifluoropropylsulfonyl)-4-hexenenitrile] | ≤ 3 |
| C#CCCCCCC(C#N)S(=O)(=O)CCC(F)(F)F (stereo not drawn) [present compound (24), 2-(3,3,3-trifluoropropylsulfonyl)-8-nonynenitrile] | ≤ 3 |
